In patent US12466807B2, “Salt and crystal form of a FAK inhibitor” (Amplia Therapeutics Limited, priority 2019, dated 2025):
Some results were stated once for a whole list of compounds, not compound by compound.

Experiment: Oral exposure (pharmacokinetics) in rats
Assay type: in vivo, male Sprague Dawley rats
Details: PO 20 mg/kg (free base equivalent), rat, mean ± SD, n = 3, listed as L-tartrate salt
Method: To compare the exposure of the compound of Formula I in male Sprague Dawley rats following oral administration of the free base and L-tartrate salt at a target dose of 20 mg/kg (as free base equivalent).
Further details of the in-life, formulation and bioanalytical procedures together with the data analysis, are described in Appendix 1.
In-Life • The exposure of Formula I was studied in overnight-fasted male Sprague Dawley rats that had access to water ad libitum throughout the pre- and post-dose sampling period, and access to food was re-instated 4 h post-dose. In-life details are provided in Table A1-1. • Samples of arterial blood and total urine were collected up to 48 h post-dose. Arterial blood was collected directly into borosilicate vials (at 4° C.) containing heparin, Complete® (a protease inhibitor cocktail) and potassium fluoride to minimise potential for ex vivo degradation of Formula I in blood/plasma samples. Once collected, blood samples were centrifuged, supernatant plasma was removed and stored frozen (−80° C.) until analysis by LC-MS. […]
Plasma samples were similarly prepared, except that blank acetonitrile (10 μL) was added instead of solution standards. […] All plasma concentrations are expressed as the non-salt equivalent.
Standard Calculations • Plasma concentration versus time data were analysed using non-compartmental methods (PKSolver Version 2.0). […]

With `COc1cc(C2CCN(C)CC2)ccc1Nc1ncc(C(F)(F)F)c(CCc2ccccc2CC(N)=O)n1` [L-Tartrate] the Tmax was 5 to 7 h.
